Experimental data reported in paper PMC11162793.
No constants are given. Whether binding was seen depends on the method and setting. In cells and extracts the contact can be indirect. Some entries that bind do so weakly or less than the wild type. Tags and fused reporters may be left off the sequences shown.

The chains behind the UniProt entries cited, without tags or fusion partners.
UniProt Q06609: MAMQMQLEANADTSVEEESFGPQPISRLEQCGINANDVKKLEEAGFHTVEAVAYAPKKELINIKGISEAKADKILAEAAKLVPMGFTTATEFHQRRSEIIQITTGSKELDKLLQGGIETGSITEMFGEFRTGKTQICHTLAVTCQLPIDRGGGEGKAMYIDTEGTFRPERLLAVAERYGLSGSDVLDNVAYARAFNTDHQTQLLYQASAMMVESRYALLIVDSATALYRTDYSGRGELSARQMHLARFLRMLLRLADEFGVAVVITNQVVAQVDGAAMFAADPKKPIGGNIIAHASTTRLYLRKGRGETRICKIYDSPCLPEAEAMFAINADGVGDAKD

Biological target: T1, Myc-FIGNL1 (human) (UniProt Q6PIW4)
T1 sequence: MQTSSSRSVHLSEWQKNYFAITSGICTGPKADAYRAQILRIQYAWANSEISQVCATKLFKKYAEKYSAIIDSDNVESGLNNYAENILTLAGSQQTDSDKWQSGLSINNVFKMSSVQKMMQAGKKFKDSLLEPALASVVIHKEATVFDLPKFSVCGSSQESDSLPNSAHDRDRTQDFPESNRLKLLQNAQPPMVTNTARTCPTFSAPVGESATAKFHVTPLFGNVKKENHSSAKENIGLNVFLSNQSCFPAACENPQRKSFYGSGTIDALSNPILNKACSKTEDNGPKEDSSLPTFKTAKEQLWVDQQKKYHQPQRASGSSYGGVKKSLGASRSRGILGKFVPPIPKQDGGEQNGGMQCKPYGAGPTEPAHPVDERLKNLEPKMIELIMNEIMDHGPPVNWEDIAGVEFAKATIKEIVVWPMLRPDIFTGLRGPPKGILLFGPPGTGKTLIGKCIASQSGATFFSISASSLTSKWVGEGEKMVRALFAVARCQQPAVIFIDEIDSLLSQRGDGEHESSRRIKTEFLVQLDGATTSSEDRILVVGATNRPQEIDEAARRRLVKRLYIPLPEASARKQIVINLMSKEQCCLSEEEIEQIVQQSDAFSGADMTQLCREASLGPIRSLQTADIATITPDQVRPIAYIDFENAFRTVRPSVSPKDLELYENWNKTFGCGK
Test: co-IP; HA-RAD51 and Myc-FIGNL1 variants co-expressed in 293T cells; cells lysed in benzonase buffer, NaCl raised to 500 mM, extract diluted 1:3 with no-salt IP buffer; anti-Myc affinity gel 90 min at 4°C; washed in IP buffer (150 mM NaCl, 0.25% NP-40); Western blot

Q: HA-RAD51 (from UniProt Q06609 1-339) was tested. Which binding did it give?
A: binds
